Some of the results follow.
Assays:
Test in all cases: log2 fold change, soluble protein after heating vs DMSO (PISA); higher = thermal stabilisation; K562 cells, 10 uM, 30 min; active = over 0.2 and 3.5 SD of the protein, either way, in both replicates (recomputed)
alvocidib = compound: CN1CC[C@H](c2c(O)cc(O)c3c(=O)cc(-c4ccccc4Cl)oc23)[C@H](O)C1 [alvocidib]
In short: (§1)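 Aliquots of K562 cells (2×10^6 cells/mL) treated with 10 μM compound for 30 min were heated for 3 min over 48°C-58°C. After pooling and extraction in PBS with 0.5% NP-40 at 4°C, soluble protein from a 21,000xg, 90 min spin was quantified by TMTpro 16plex LC-MS/MS with channel sums equalised. Thermal stability is expressed against control samples, from duplicates, as a log2 fold change.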

Sequences of proteins named here, by UniProt entry; tags and fusion partners are left off. A change or cut given only in a name is not applied to a line headed by its entry.
UniProt P07205: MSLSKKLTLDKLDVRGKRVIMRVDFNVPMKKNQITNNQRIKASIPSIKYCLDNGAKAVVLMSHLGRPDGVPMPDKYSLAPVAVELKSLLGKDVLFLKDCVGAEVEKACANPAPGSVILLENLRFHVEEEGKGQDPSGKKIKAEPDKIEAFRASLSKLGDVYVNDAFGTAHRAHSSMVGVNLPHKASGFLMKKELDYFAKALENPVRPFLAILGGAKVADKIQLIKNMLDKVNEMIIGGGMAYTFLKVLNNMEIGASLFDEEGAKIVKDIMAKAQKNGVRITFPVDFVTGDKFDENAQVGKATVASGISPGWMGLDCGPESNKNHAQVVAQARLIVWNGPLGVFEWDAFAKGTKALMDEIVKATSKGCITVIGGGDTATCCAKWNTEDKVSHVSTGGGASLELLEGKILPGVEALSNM
UniProt Q9UBF8: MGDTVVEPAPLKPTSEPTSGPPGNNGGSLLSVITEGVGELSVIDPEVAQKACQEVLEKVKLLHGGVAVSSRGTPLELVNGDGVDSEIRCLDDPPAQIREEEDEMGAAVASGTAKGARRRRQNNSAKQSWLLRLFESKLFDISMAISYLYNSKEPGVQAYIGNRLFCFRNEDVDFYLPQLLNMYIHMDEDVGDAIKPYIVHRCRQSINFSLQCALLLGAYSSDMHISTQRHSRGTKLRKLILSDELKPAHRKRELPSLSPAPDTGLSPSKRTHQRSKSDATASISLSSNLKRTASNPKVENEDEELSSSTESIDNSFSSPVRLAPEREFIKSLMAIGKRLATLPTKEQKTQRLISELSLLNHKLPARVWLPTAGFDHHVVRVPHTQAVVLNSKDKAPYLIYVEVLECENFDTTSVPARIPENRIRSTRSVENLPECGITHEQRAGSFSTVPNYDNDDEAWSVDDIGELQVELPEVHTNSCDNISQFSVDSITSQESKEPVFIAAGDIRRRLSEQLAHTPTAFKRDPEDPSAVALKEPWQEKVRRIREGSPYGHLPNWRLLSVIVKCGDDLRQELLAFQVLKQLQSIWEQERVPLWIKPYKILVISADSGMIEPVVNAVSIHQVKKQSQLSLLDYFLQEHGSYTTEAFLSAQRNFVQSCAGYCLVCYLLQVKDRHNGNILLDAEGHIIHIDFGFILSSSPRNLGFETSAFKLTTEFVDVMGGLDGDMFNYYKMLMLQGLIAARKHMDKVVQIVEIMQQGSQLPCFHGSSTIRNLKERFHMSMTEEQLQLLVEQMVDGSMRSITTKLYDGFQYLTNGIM
UniProt Q9P1Y6: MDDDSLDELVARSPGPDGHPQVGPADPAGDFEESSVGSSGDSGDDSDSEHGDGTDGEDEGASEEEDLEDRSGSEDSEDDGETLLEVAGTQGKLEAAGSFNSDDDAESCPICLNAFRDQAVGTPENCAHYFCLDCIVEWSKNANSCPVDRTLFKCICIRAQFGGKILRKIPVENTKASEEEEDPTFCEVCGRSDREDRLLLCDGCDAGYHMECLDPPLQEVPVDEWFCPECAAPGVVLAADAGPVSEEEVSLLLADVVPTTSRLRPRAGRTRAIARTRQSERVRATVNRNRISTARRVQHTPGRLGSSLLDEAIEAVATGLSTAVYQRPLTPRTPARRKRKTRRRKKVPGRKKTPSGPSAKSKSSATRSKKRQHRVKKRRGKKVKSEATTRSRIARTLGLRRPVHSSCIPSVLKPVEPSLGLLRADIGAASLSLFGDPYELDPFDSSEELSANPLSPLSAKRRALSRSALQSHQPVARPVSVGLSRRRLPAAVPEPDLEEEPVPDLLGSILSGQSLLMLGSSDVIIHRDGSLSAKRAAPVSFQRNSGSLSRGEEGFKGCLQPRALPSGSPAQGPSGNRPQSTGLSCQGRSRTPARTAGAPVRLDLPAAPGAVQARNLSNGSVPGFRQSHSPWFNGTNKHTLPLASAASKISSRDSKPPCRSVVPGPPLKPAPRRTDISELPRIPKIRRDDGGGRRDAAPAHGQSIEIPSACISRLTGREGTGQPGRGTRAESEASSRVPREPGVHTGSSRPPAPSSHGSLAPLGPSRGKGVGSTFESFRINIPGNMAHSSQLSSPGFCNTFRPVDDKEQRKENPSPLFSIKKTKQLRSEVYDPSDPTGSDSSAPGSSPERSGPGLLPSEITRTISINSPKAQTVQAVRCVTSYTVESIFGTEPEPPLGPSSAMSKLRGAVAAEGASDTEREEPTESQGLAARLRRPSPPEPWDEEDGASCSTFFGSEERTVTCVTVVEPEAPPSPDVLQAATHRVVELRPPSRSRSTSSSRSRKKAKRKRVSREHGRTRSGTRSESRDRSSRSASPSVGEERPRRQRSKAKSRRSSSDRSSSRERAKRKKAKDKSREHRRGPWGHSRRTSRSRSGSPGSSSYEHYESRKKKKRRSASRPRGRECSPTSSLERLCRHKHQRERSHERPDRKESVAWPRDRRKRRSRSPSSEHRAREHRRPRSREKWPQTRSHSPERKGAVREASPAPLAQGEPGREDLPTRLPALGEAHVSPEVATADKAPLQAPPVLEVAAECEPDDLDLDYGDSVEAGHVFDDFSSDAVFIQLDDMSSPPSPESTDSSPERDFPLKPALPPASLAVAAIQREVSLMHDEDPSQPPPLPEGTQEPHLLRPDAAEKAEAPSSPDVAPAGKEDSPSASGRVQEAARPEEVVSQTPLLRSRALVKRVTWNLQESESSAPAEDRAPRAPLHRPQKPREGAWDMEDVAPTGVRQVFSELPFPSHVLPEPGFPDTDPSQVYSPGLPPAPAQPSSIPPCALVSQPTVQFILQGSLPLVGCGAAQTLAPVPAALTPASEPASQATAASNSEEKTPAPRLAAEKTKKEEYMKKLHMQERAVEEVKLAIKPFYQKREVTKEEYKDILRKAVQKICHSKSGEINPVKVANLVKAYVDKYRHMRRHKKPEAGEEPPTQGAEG
UniProt Q9C010: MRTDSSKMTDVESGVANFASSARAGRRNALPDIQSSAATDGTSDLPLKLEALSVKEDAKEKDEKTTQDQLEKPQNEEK
UniProt P16118: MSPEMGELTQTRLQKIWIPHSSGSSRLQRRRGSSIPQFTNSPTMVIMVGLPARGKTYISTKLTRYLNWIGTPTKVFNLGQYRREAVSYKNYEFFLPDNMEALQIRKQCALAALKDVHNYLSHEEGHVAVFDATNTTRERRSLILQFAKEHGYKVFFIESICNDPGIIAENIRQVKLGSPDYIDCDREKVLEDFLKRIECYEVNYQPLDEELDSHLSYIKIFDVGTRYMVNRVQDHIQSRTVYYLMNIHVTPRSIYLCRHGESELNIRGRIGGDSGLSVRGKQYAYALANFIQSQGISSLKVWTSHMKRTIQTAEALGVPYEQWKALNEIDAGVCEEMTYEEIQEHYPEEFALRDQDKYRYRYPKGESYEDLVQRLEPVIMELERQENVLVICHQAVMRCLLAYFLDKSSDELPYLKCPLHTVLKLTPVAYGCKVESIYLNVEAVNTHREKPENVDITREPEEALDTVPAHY
UniProt Q8N2A8: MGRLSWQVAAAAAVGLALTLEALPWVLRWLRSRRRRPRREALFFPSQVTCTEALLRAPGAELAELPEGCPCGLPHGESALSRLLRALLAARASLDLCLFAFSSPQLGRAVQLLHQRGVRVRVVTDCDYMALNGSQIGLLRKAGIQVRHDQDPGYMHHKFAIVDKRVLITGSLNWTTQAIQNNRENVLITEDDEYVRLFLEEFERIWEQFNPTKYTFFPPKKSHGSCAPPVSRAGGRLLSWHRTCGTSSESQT
UniProt Q99569: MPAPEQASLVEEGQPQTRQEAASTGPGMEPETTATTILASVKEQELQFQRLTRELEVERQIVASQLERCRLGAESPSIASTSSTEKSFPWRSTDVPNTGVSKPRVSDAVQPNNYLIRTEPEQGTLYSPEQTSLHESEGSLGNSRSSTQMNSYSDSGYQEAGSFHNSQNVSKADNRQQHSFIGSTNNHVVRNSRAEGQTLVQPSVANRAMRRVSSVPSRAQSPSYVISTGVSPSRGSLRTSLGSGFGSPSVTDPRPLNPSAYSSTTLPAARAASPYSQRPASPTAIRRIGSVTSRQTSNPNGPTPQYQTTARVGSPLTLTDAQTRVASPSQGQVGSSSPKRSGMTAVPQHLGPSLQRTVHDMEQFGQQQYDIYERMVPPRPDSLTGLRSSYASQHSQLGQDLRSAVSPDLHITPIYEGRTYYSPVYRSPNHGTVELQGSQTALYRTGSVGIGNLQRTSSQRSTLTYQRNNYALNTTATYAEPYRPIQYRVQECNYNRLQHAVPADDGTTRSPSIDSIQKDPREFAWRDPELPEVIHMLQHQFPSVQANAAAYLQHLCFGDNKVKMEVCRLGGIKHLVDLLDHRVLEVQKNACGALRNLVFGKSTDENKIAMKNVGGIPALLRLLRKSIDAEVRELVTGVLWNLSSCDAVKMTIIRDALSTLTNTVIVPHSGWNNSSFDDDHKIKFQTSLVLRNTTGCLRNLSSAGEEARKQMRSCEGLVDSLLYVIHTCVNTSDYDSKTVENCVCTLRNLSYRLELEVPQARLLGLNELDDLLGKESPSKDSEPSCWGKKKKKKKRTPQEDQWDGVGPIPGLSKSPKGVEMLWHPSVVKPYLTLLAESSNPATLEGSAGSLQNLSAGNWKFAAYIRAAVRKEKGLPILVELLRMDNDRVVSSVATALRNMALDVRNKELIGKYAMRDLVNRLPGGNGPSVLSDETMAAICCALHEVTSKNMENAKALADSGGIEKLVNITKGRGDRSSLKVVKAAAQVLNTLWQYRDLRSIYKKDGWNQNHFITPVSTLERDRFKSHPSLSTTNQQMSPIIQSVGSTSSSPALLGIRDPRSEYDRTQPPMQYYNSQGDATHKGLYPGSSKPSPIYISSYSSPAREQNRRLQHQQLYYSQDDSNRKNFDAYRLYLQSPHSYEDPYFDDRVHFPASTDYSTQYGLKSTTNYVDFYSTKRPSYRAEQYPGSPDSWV
UniProt O60346: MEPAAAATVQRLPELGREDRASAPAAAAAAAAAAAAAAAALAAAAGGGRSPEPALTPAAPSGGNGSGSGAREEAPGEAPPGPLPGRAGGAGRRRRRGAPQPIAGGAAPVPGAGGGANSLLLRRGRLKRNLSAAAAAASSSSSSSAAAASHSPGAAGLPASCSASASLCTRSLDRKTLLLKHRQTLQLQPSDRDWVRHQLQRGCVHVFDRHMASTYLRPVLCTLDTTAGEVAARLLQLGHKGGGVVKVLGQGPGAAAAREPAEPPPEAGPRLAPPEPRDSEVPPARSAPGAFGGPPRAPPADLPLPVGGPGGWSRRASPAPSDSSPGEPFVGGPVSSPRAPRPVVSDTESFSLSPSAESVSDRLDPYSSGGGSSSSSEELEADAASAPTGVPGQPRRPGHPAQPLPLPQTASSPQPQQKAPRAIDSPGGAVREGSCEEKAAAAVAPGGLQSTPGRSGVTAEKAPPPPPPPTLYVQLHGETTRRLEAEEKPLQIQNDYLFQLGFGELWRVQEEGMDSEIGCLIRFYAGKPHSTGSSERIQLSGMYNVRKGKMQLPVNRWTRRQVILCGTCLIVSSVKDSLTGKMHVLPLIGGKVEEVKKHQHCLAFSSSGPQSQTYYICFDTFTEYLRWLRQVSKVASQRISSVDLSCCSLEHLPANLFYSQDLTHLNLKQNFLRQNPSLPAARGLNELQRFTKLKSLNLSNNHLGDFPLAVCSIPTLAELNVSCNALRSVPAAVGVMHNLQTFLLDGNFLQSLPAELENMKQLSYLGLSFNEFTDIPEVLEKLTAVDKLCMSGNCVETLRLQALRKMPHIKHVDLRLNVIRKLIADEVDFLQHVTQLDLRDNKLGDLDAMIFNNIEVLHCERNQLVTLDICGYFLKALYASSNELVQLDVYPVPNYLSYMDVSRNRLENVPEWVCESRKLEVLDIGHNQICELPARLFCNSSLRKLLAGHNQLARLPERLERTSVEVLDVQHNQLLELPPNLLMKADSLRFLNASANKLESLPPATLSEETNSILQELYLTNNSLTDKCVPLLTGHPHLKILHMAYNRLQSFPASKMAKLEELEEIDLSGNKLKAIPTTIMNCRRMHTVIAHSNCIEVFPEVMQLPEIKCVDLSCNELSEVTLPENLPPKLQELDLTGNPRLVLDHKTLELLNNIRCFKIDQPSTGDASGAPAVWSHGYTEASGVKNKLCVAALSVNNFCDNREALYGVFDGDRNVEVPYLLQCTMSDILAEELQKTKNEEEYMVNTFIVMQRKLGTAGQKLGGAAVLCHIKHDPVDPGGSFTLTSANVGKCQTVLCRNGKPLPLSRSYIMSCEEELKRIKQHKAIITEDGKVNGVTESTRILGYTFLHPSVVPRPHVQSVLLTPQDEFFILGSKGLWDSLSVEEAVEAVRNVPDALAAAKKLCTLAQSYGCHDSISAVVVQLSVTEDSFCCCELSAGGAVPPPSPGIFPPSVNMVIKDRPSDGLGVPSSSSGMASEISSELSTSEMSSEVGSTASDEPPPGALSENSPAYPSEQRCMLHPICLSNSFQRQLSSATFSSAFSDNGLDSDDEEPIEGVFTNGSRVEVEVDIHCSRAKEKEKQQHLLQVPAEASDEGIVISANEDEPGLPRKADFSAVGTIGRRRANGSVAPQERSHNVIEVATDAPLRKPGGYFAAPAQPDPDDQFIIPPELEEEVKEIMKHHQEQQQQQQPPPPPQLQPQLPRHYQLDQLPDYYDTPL

Tubastatin A = compound: CN1CCc2c(c3ccccc3n2Cc2ccc(C(=O)NO)cc2)C1 [Tubastatin A]
In short: as §1

[1] = compound: CNC(=O)C1=CC=CC=C1NC2=NC(=NC=C2Cl)NC3=C(C=C(C=C3)N4CCOCC4)OC
In short: as §1

defactinib = compound: CNC(=O)c1ccc(Nc2ncc(C(F)(F)F)c(NCc3nccnc3N(C)S(C)(=O)=O)n2)cc1 [defactinib]
In short: as §1

rucaparib = compound: CNCc1ccc(-c2[nH]c3cc(F)cc4c3c2CCNC4=O)cc1 [rucaparib]
In short: as §1

encorafenib = compound: COC(=O)N[C@@H](C)CNc1nccc(-c2cn(C(C)C)nc2-c2cc(Cl)cc(NS(C)(=O)=O)c2F)n1 [encorafenib]
In short: as §1

[2] = compound: COC(=O)[C@H](CCSC)NC(=O)C1=C(C=C(C=C1)NC[C@H](CS)N)C2=CC=CC=C2
In short: as §1

saracatinib = compound: CN1CCN(CCOc2cc(OC3CCOCC3)c3c(Nc4c(Cl)ccc5c4OCO5)ncnc3c2)CC1 [saracatinib]
In short: as §1

sotrastaurin = compound: CN1CCN(c2nc(C3=C(c4c[nH]c5ccccc45)C(=O)NC3=O)c3ccccc3n2)CC1 [sotrastaurin]
In short: as §1

[3] = compound: CNc1nc(-c2ccc3c(N)n[nH]c3c2)cc(N2C[C@@H](C(=O)NC3CCCCC3)CC[C@H]2C)n1
In short: as §1

Measured: log2 fold change

PLEKHA5 isoform 6 (UniProt Q9HAU0)
inactive: alvocidib 0.045 | Tubastatin A 0.115 | [1] -0.227 | defactinib 0.161 | rucaparib 0.707 | encorafenib 0.378 | [2] -0.027

PHF14 (UniProt O94880)
inactive: saracatinib 0.147 | sotrastaurin 0.027 | Tubastatin A 0.046 | defactinib 0.17 | [3] -0.114 | [2] -0.193

PLCG2 (UniProt P16885)
inactive: [1] -0.039 | rucaparib -0.209 | encorafenib -0.02

PKM isoform 2 (UniProt P14618)
inactive: saracatinib 0.202 | sotrastaurin -0.133 | Tubastatin A -0.052 | defactinib -0.045 | rucaparib 0.125 | [3] -0.063 | encorafenib -0.09 | [2] -0.081

PGK2 (UniProt P07205)
inactive: saracatinib -0.196 | sotrastaurin 0.154 | Tubastatin A -0.041 | defactinib 0.037 | rucaparib -0.248 | [3] -0.131 | encorafenib -0.056 | [2] 0.038

PI4KB isoform 2 (UniProt Q9UBF8)
inactive: [1] -0.276 | rucaparib -0.077 | encorafenib 0.013

PIAS4 (UniProt Q8N2W9)
inactive: saracatinib -0.207 | Tubastatin A -0.057 | [3] -0.043

PHETA1 isoform 4 (UniProt Q8N4B1)
inactive: saracatinib 0.133 | [3] -0.111

PHRF1 (UniProt Q9P1Y6)
inactive: [1] -0.022

PHOSPHO2 (UniProt Q8TCD6)
inactive: saracatinib -0.217 | alvocidib -0.131 | Tubastatin A 0.047 | [1] 0.052 | defactinib 0.013 | [3] -0.112 | [2] 0.112

Quoted from the listing (2 entries):
PIAS4 (UniProt Q8N2W9)
inactive: saracatinib -0.207 | Tubastatin A -0.057 | [3] -0.043

PHETA1 isoform 4 (UniProt Q8N4B1)
inactive: saracatinib 0.133 | [3] -0.111

Next entries.

PFN1 (UniProt I3L3D5)
inactive: sotrastaurin 0.156 | alvocidib 0.153 | Tubastatin A -0.151 | [1] -0.162 | rucaparib 0.131 | encorafenib -0.141

PKIB isoform 2 (UniProt Q9C010)
inactive: [1] 0.032 | rucaparib -0.112 | encorafenib 0.082

PICK1 (UniProt Q9NRD5)
inactive: sotrastaurin 0.171

PFKFB1 (UniProt P16118)
inactive: sotrastaurin -0.165

PLD6 (UniProt Q8N2A8)
inactive: sotrastaurin 0.048 | defactinib 0.033 | [2] 0.09

PIGL (UniProt Q9Y2B2)
inactive: saracatinib 0.052 | alvocidib 0.1 | Tubastatin A -0.027 | [1] -0.021 | defactinib -0.01 | rucaparib -0.064 | [3] -0.041 | encorafenib -0.114 | [2] -0.06

PKP4 (UniProt Q99569)
inactive: [1] 0.049 | rucaparib 0.151 | encorafenib -0.137

PIK3CA (UniProt P42336)
inactive: sotrastaurin -0.204 | alvocidib -0.101 | [1] -0.042

PEX26 (UniProt Q7Z412)
inactive: saracatinib 0.059 | alvocidib -0.058 | Tubastatin A 0.016 | [1] -0.046 | defactinib 0.03 | [3] -0.037 | [2] 0.028

PHLPP1 (UniProt O60346)
inactive: saracatinib -0.268 | alvocidib 0.023 | Tubastatin A 0.035 | [3] 0.174

PIBF1 (UniProt Q8WXW3)
inactive: saracatinib -0.227 | Tubastatin A -0.019 | [1] 0.05 | [3] 0.113

PKN3 (UniProt Q6P5Z2)
inactive: sotrastaurin 0.107

From the supplement of paper PMC10849652
